Laboratory results from US10369229B2, “Methods and compositions for liposomal formulation of antigens and uses thereof” (priority 2009, dated 2019).
At least one peptide structure holds a part that was inferred or is arguable (an end, a ring closure or a residue). Where a SMILES comes first, the peptide text is derived from it. The star is where a group is joined. Succinyl(4-O-cholesteryl) = CC(C)CCC[C@@H](C)[C@H]1CC[C@H]2[C@@H]3CC=C4C[C@@H](OC(=O)CCC(=O)*)CC[C@]4(C)[C@H]3CC[C@]12C; X1 = CCCCCCCCCCCCCCCC(=O)OCC(COC(=O)CCC(=O)*)OC(=O)CCCCCCCCCCCCCCC

Columns and labels:
[1] = Tryptophan fluorescence, lipopeptide membrane partitioning into liposomes; type: physicochemical; conditions: DMPC:DMPG:Cholesterol liposomes, 10-150 μM lipid
[2] = Circular dichroism of liposomal lipopeptides (percent helicity); type: physicochemical; conditions: formulated in liposomes; estimated from θ222
Procedure: Liposomal lipopeptide samples were prepared as described above with the following modifications. Stock liposome solutions containing 5 mM carrier lipid and 500 μM lipopeptide were prepared in 10 mM phosphate, pH 7.4. To minimize light scattering, liposomes were prepared by bath sonication under argon until a size of less than 100 nm was obtained. For analysis, samples were diluted to 5 μM lipopeptide in 10 mM phosphate buffer containing 1 mM carrier lipid. Spectra were obtained with a J-715 spectrapolarimeter (Jasco, Easton, Md.) and data were processed using Jasco software. Data were acquired in continuous scanning mode with a pathlength of 1 cm, 0.1 nm interval and scan speed of 1 nm/s. Each spectrum represents an average of two scans. A background spectrum of “empty” liposomes in buffer was subtracted from each sample spectrum. Percent helicity was estimated from θ222 according to the method of Taylor and Kaiser.

Row | SMILES | tryptophan fluorescence as a function of liposome concentration [1] | helicity (helical content) [2] [%]
1 | CCCCCCCCCCCCCCCC(=O)OCC(COC(=O)CCC(=O)NCCCC[C@H](NC(=O)CNC(=O)CNC(=O)[C@H](CC(N)=O)NC(=O)[C@H](Cc1c[nH]c2ccccc12)NC(=O)[C@H](CC(C)C)NC(=O)[C@H](CO)NC(=O)[C@H](C)NC(=O)[C@H](Cc1c[nH]c2ccccc12)NC(=O)[C@H](CCCCN)NC(=O)[C@H](CC(=O)O)NC(=O)[C@H](CC(C)C)NC(=O)[C@H](CCC(=O)O)NC(=O)[C@H](CC(C)C)NC(=O)[C@H](CC(C)C)NC(=O)[C@H](CCC(=O)O)NC(=O)[C@H](CCC(N)=O)NC(=O)[C@H](CCC(=O)O)NC(=O)[C@@H](N)CC(N)=O)C(=O)O)OC(=O)CCCCCCCCCCCCCCC (stereo partly drawn) [N-MPR-DPG] (H-NEQELLELDKWASLWNGGK(X1)-OH; N-terminus and C-terminus assumed) | unaffected by increasing lipid concentration | 47.8
2 | CC(C)CCC[C@@H](C)[C@H]1CC[C@H]2[C@@H]3CC=C4C[C@@H](OC(=O)CCC(=O)NCCCC[C@H](NC(=O)CNC(=O)CNC(=O)[C@H](CC(N)=O)NC(=O)[C@H](Cc5c[nH]c6ccccc56)NC(=O)[C@H](CC(C)C)NC(=O)[C@H](CO)NC(=O)[C@H](C)NC(=O)[C@H](Cc5c[nH]c6ccccc56)NC(=O)[C@H](CCCCN)NC(=O)[C@H](CC(=O)O)NC(=O)[C@H](CC(C)C)NC(=O)[C@H](CCC(=O)O)NC(=O)[C@H](CC(C)C)NC(=O)[C@H](CC(C)C)NC(=O)[C@H](CCC(=O)O)NC(=O)[C@H](CCC(N)=O)NC(=O)[C@H](CCC(=O)O)NC(=O)[C@@H](N)CC(N)=O)C(=O)O)CC[C@]4(C)[C@H]3CC[C@]12C [N-MPR-CHEMS] (H-NEQELLELDKWASLWNGGK(Succinyl(4-O-cholesteryl))-OH; N-terminus and C-terminus assumed) |  | 26.5
